From article PMC7041778
No constants are given. Whether binding was seen depends on the method and setting. Binding seen in cells or lysates may run through a third protein. Some results given as binding are weak or reduced against the parent protein; the word gives no strength.

Amino acid sequences for entries named in this document (tags omitted).
UniProt P38936: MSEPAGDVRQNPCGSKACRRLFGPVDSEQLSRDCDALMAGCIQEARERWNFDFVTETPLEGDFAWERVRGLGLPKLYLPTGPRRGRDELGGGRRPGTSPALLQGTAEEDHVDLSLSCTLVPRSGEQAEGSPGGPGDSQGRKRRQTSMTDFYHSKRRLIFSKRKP
UniProt Q9NTK5: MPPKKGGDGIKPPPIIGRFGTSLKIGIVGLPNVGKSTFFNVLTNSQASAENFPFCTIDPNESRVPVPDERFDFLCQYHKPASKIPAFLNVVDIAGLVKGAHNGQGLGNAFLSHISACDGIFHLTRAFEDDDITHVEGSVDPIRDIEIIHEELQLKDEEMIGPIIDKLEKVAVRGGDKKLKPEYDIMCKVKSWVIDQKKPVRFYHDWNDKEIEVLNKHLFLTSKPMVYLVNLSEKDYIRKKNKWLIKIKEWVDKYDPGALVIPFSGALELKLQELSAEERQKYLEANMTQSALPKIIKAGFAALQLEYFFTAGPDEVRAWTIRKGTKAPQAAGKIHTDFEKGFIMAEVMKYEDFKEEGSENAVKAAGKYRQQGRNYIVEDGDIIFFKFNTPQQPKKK

Legend:
[1] = target: HA-P21 (in HEK293T cells) (UniProt P38936); experiment: co-IP; HEK293T cells transfected with Flag-OLA1 or HA-P21 (or both) for 48 h; extracts incubated with antibodies (or IgG control) and protein A/G beads 12 h at 4°C; western blot
HA-P21 (in HCC cells) = HA-P21 (in HCC cells) (UniProt P38936); experiment: co-IP; HCC cells transfected with Flag-CDK2 and HA-P21 with or without siRNA-OLA1 or GST-OLA1 for 48 h; extracts incubated with antibodies and protein A/G beads 12 h at 4°C; western blot
P21, endogenous = P21, endogenous (UniProt P38936); experiment: co-IP; endogenous OLA1 and P21; cells not given; western blot

| binding [1] | binding (HA-P21 (in HCC cells)) | binding (P21, endogenous) | Substance |
| --- | --- | --- | --- |
| binds | – | – | Flag-OLA1 (from UniProt Q9NTK5 1-396) |
| – | binds | – | GST-OLA1 (from UniProt Q9NTK5 1-396) |
| – | binds | binds | Obg-like ATPase 1 (OLA1), endogenous (from UniProt Q9NTK5 1-396) |
